Reference: PMC7285653
These are yes or no findings as the source states them, for the method shown.

By UniProt entry, the sequences of proteins in these tests, tags left out. Where a name states a change or a piece, a line headed by the entry shows the natural chain unless it says otherwise.
UniProt Q01650: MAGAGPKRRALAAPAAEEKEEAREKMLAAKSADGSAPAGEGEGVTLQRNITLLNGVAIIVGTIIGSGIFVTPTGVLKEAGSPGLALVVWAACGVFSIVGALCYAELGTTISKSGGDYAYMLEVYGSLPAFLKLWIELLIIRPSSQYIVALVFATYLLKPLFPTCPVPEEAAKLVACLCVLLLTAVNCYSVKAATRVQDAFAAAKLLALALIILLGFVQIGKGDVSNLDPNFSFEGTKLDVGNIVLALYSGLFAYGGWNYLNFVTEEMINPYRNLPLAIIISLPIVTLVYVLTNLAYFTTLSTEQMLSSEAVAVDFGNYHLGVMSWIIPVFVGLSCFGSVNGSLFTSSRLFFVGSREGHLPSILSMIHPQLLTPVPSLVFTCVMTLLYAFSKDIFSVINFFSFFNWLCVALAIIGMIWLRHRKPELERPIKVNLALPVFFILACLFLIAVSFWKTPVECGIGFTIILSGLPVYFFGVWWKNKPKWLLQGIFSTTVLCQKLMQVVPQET
UniProt P08195: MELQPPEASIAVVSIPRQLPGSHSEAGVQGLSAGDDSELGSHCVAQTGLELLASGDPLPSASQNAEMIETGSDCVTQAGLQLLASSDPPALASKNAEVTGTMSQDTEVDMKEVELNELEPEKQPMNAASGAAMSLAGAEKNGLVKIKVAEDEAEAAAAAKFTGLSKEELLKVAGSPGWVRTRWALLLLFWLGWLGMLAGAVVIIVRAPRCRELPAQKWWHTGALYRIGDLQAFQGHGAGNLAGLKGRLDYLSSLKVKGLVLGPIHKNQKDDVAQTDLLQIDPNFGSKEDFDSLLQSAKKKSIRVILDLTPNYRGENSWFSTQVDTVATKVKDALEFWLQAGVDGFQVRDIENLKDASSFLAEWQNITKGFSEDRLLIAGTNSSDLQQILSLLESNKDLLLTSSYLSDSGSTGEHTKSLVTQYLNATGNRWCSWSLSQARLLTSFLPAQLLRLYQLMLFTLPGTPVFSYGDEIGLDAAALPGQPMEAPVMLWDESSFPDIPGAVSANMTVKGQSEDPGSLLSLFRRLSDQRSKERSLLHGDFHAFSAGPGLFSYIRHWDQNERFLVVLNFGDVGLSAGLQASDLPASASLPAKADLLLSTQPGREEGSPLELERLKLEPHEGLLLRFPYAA

Biological target: LAT1–CD98hc heteromeric amino-acid transporter complex (not stated | human (endogenous in HEK293SG)) (UniProt Q01650+P08195)
Test: cryo-EM structure; single-particle cryo-EM of detergent-solubilized (DDM/CHS/LMNG) LAT1–CD98hc purified by anti-V5 immunoaffinity and Superdex 200 in 100 mM Tris-HCl, 300 mM NaCl; grids at 2.3 mg/ml, Volta phase plate; ~12 Å map; two-body multibody refinement; both purified

LAT1–CD98hc heteromeric amino-acid transporter complex (from UniProt Q01650 1-507; P08195 1-529)
binding: no binding
